# Results taken from the supplement of paper PMC8728848.
# The list shows a part of the results.
# B1: ArathEULS3 TAP (Arabidopsis thaliana) (protein)
# chain: IDENLYFQGGSMDEKTTGWRGGHVVEGLAGELEQLRARLEHHPQGQREPGGGGSLEITSLYKKAGFMEHHHQHHRHHQRDDGEDDRQSFGVPPPHVDAPPQPHGLYQSQPHFDPYAPTPQAPAPYRSETQFEPHAPPPYRSEPYFETPAPPPSFGHVSHVGHQSPNESYPPEHHRYGGYQQPSNSLLESHGDHSGVTHVAHHSSNQPQSSSGVYHKPDENRLPDNLAGLAGRATVKVYSKAEPNYNLTIRDGKVILAPADPSDEAQHWYKDEKYSTKVKDADGHPCFALVNKATGEAMKHSVGATHPVHLIRYVPDKLDESVLWTESKDFGDGYRTIRMVNNTRLNVDAYHGDSKSGGVRDGTTIVLWDWNKGDNQLWKIFPF
# Key:
# Test in all cases: glycan array binding signal (z-score within array); higher = stronger binding
# Conditions in all cases: glycan notation: IUPAC condensed, linker removed
# [1] = biological target: Fuc(a1-2)[Gal(a1-4)]Gal(b1-4)GlcNAc
# Summary of the method: (§1)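 Glycan array data came from 3228 arrays in the Consortium for Functional Glycomics database, and only arrays with an available protein sequence were kept. Glycan names were put into IUPAC-condensed notation, and columns mapping to the same glycan were averaged. The binding signal is a within-array Z-score, averaged across arrays of one protein sequence run at different concentrations or buffers and across linkers. A negative Z-score can be read as non-binding.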
# [2] = biological target: Fuc(a1-2)[GalNAc(a1-3)]Gal
# Summary of the method: as §1
# [3] = biological target: Fuc(a1-2)[GalNAc(a1-3)]Gal(b1-3)GalNAc(a1-3)[Fuc(a1-2)]Gal(b1-4)GlcNAc
# Summary of the method: as §1
# [4] = biological target: Fuc(a1-2)[GalNAc(a1-3)]Gal(b1-3)GalNAc(b1-3)Gal(a1-4)Gal(b1-4)Glc
# Summary of the method: as §1
# [5] = biological target: Fuc(a1-2)[GalNAc(a1-3)]Gal(b1-3)GlcNAc
# Summary of the method: as §1
# [6] = biological target: Fuc(a1-2)[GalNAc(a1-3)]Gal(b1-3)GlcNAc(b1-2)Man(a1-3)[Fuc(a1-2)[GalNAc(a1-3)]Gal(b1-3)GlcNAc(b1-2)Man(a1-6)]Man(b1-4)GlcNAc(b1-4)GlcNAc
# Summary of the method: as §1
# [7] = biological target: Fuc(a1-2)[GalNAc(a1-3)]Gal(b1-3)GlcNAc(b1-2)Man(a1-3)[Fuc(a1-2)[GalNAc(a1-3)]Gal(b1-3)GlcNAc(b1-2)Man(a1-6)]Man(b1-4)GlcNAc(b1-4)[Fuc(a1-6)]GlcNAc
# Summary of the method: as §1
# [8] = biological target: Fuc(a1-2)[GalNAc(a1-3)]Gal(b1-3)GlcNAc(b1-3)GalNAc
# Summary of the method: as §1
# [9] = biological target: Fuc(a1-2)[GalNAc(a1-3)]Gal(b1-3)GlcNAc(b1-6)GalNAc
# Summary of the method: as §1
# [10] = biological target: Fuc(a1-2)[GalNAc(a1-3)]Gal(b1-4)Glc
# Summary of the method: as §1
# [11] = biological target: Fuc(a1-2)[GalNAc(a1-3)]Gal(b1-4)GlcNAc
# Summary of the method: as §1
# [12] = biological target: Fuc(a1-2)[GalNAc(a1-3)]Gal(b1-4)GlcNAc(b1-2)Man
# Summary of the method: as §1
# [13] = biological target: Fuc(a1-2)[GalNAc(a1-3)]Gal(b1-4)GlcNAc(b1-2)Man(a1-3)[Fuc(a1-2)[GalNAc(a1-3)]Gal(b1-4)GlcNAc(b1-2)Man(a1-6)]Man(b1-4)GlcNAc(b1-4)GlcNAc
# Summary of the method: as §1
# [14] = biological target: Fuc(a1-2)[GalNAc(a1-3)]Gal(b1-4)GlcNAc(b1-2)Man(a1-3)[Fuc(a1-2)[GalNAc(a1-3)]Gal(b1-4)GlcNAc(b1-2)Man(a1-6)]Man(b1-4)GlcNAc(b1-4)[Fuc(a1-6)]GlcNAc
# Summary of the method: as §1
# [15] = biological target: Fuc(a1-2)[GalNAc(a1-3)]Gal(b1-4)GlcNAc(b1-3)Gal(b1-4)GlcNAc
# Summary of the method: as §1
# [16] = biological target: Fuc(a1-2)[GalNAc(a1-3)]Gal(b1-4)GlcNAc(b1-3)Gal(b1-4)GlcNAc(b1-3)Gal(b1-4)GlcNAc
# Summary of the method: as §1
# [17] = biological target: Fuc(a1-2)[GalNAc(a1-3)]Gal(b1-4)GlcNAc(b1-3)GalNAc
# Summary of the method: as §1
# [18] = biological target: Fuc(a1-2)[GalNAc(a1-3)]Gal(b1-4)GlcNAc(b1-3)[Fuc(a1-2)[GalNAc(a1-3)]Gal(b1-4)GlcNAc(b1-6)]GalNAc
# Summary of the method: as §1
# [19] = biological target: Fuc(a1-2)[GalNAc(a1-3)]Gal(b1-4)GlcNAc(b1-6)GalNAc
# Summary of the method: as §1
# [20] = biological target: Fuc(a1-2)[GalNAc(a1-3)]Gal(b1-4)[Fuc(a1-3)]GlcNAc
# Summary of the method: as §1
# [21] = biological target: Fuc(a1-2)[GalNAc(a1-3)]Gal(b1-4)[Fuc(a1-3)]GlcNAc(b1-3)GalNAc
# Summary of the method: as §1
# [22] = biological target: Fuc(a1-2)[GalNAc(a1-4)]Gal(b1-4)GlcNAc
# Summary of the method: as §1
# [23] = biological target: Fuc(a1-2)[GalNAc(b1-3)]Gal
# Summary of the method: as §1
# [24] = biological target: Fuc(a1-3)GlcNAc
# Summary of the method: as §1
# [25] = biological target: Fuc(a1-3)[Gal(b1-4)]Glc6S
# Summary of the method: as §1
# [26] = biological target: Fuc(a1-3)[Gal(b1-4)]GlcNAc
# Summary of the method: as §1
# [27] = biological target: Fuc(a1-3)[Gal(b1-4)]GlcNAc(b1-2)Man
# Summary of the method: as §1
# [28] = biological target: Fuc(a1-3)[Gal(b1-4)]GlcNAc(b1-2)Man(a1-3)[Fuc(a1-3)[Gal(b1-4)]GlcNAc(b1-2)Man(a1-6)]Man(b1-4)GlcNAc(b1-4)GlcNAc
# Summary of the method: as §1
# [29] = biological target: Fuc(a1-3)[Gal(b1-4)]GlcNAc(b1-2)Man(a1-3)[Fuc(a1-3)[Gal(b1-4)]GlcNAc(b1-2)Man(a1-6)]Man(b1-4)GlcNAc(b1-4)[Fuc(a1-6)]GlcNAc
# Summary of the method: as §1
# [30] = biological target: Fuc(a1-3)[Gal(b1-4)]GlcNAc(b1-3)Gal(b1-3)[Fuc(a1-4)]GlcNAc
# Summary of the method: as §1
# [31] = biological target: Fuc(a1-3)[Gal(b1-4)]GlcNAc(b1-3)Gal(b1-4)[Fuc(a1-3)]GlcNAc
# Summary of the method: as §1
# [32] = biological target: Fuc(a1-3)[Gal(b1-4)]GlcNAc(b1-3)Gal(b1-4)[Fuc(a1-3)]GlcNAc(b1-3)Gal(b1-4)[Fuc(a1-3)]GlcNAc
# Summary of the method: as §1
# [33] = biological target: Fuc(a1-3)[Gal(b1-4)]GlcNAc(b1-3)GalNAc
# Summary of the method: as §1
# [34] = biological target: Fuc(a1-3)[Gal(b1-4)]GlcNAc(b1-6)GalNAc
# Summary of the method: as §1
# [35] = biological target: Fuc(a1-3)[Gal(b1-4)]GlcNAc(b1-6)[Gal(b1-3)GlcNAc(b1-3)]Gal(b1-4)Glc
# Summary of the method: as §1
# [36] = biological target: Fuc(a1-3)[Gal(b1-4)]GlcNAc6S
# Summary of the method: as §1
# [37] = biological target: Fuc(a1-3)[Gal3S(b1-4)]Glc
# Summary of the method: as §1
# [38] = biological target: Fuc(a1-3)[Gal3S(b1-4)]GlcNAc
# Summary of the method: as §1
binder,measurement,setting,value
B1,glycan array binding signal (z-score),[1],1.48
same,glycan array binding signal (z-score),[2],0.118
same,glycan array binding signal (z-score),[3],-2.11
same,glycan array binding signal (z-score),[4],-0.019
same,glycan array binding signal (z-score),[5],0.099
same,glycan array binding signal (z-score),[6],-0.45
same,glycan array binding signal (z-score),[7],0.103
same,glycan array binding signal (z-score),[8],0.455
same,glycan array binding signal (z-score),[9],0.767
same,glycan array binding signal (z-score),[10],0.519
same,glycan array binding signal (z-score),[11],0.134
same,glycan array binding signal (z-score),[12],0.256
same,glycan array binding signal (z-score),[13],-0.159
same,glycan array binding signal (z-score),[14],-0.042
same,glycan array binding signal (z-score),[15],-0.5
same,glycan array binding signal (z-score),[16],0.025
same,glycan array binding signal (z-score),[17],0.319
same,glycan array binding signal (z-score),[18],0.358
same,glycan array binding signal (z-score),[19],-1.03
same,glycan array binding signal (z-score),[20],-1.21
same,glycan array binding signal (z-score),[21],0.599
same,glycan array binding signal (z-score),[22],-0.499
same,glycan array binding signal (z-score),[23],-0.192
same,glycan array binding signal (z-score),[24],1.42
same,glycan array binding signal (z-score),[25],2.06
same,glycan array binding signal (z-score),[26],0.584
same,glycan array binding signal (z-score),[27],1.37
same,glycan array binding signal (z-score),[28],-0.853
same,glycan array binding signal (z-score),[29],2.05
same,glycan array binding signal (z-score),[30],-0.122
same,glycan array binding signal (z-score),[31],-0.59
same,glycan array binding signal (z-score),[32],-0.584
same,glycan array binding signal (z-score),[33],-0.36
same,glycan array binding signal (z-score),[34],-0.801
same,glycan array binding signal (z-score),[35],-0.107
same,glycan array binding signal (z-score),[36],2.6
same,glycan array binding signal (z-score),[37],-1.21
same,glycan array binding signal (z-score),[38],-0.593

# Rewritten bar-delimited: entries from further up.
binder | measurement | setting | value
B1 | glycan array binding signal (z-score) | [34] | -0.801
same | glycan array binding signal (z-score) | [35] | -0.107
same | glycan array binding signal (z-score) | [36] | 2.6
